{"source": "paper doi:10.1101/362921", "binders": {"B1": {"name": "EDS1 (Enhanced disease susceptibility 1), wild type, activation domain (AD) fusion (protein, UniProt Q9XF23 1-623)", "chain": "MAFEALTGINGDLITRSWSASKQAYLTERYHKEEAGAVVIFAFQPSFSEKDFFDPDNKSSFGEIKLNRVQFPCMRKIGKGDVATVNEAFLKNLEAVIDPRTSFQASVEMAVRSRKQIVFTGHSSGGATAILATVWYLEKYFIRNPNVYLEPRCVTFGAPLVGDSIFSHALGREKWSRFFVNFVTRFDIVPRITLARKASVEETLPHVLAQLDPRNSSVQESEQRITEFYTSVMRDTSTVANQAVCELTGSAEAILETLSSFLELSPYRPAGTFVFSTEKRLVAVNNSDAILQMLFYTCQASDEQEWSLIPFRSIRDHHSYEELVQSMGMKLFNHLDGENSIESSLNDLGVSTRGRQYVQAALEEEKKRVENQKKIIQVIQQERFLKKLAWIEDEYKPKCQAHKNGYYDSFKVSNEENDFKANVKRAELAGVFDEVLGLLKKCQLPDEFEGDIDWIKLATRYRRLVEPLDIANYHRHLKNEDTGPYMKRGRPTRYIYAQRGYEHHILKPNGMIAEDVFWNKVNGLNLGLQLEEIQETLKNSGSECGSCFWAEVEELKGKPYEEVEVRVKTLEGMLREWITAGEVDEKEIFLEGSTFRKWWITLPKNHKSHSPLRDYMMDEITDT"}, "B2": {"name": "wild-type EDS1-FLAG (protein, UniProt Q9XF23 1-623)", "chain": "B1 chain"}}, "key": {"[1]": {"target": "T1, PAD4 (phytoalexin deficient4), binding domain (BD) fusion (Arabidopsis) (UniProt Q9S745)", "T1 sequence": "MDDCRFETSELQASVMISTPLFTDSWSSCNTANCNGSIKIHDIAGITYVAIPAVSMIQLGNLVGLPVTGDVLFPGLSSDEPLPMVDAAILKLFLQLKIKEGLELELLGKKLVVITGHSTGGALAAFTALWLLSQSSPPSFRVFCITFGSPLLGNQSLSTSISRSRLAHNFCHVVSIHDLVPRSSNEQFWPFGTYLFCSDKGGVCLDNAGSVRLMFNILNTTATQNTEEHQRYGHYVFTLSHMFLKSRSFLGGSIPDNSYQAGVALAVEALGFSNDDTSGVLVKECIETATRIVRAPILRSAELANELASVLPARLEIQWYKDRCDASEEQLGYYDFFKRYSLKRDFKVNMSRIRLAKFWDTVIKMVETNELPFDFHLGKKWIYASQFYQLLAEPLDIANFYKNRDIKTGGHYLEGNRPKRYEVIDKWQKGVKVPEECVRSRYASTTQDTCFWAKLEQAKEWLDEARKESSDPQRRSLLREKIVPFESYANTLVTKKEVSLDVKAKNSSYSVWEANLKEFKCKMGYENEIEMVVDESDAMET", "experiment": "two-hybrid"}, "PAD4-YFP (Arabidopsis)": {"target": "T2, PAD4-YFP (Arabidopsis) (UniProt Q9S745)", "T2 sequence": "T1 sequence", "experiment": "co-IP"}}, "note": "These are yes or no findings as the source states them, for the method shown. For some assays here: Binding seen in cells or lysates may run through a third protein. Some results given as binding are weak or reduced against the parent protein; the word gives no strength. Where a sequence is shown, tags or fusion partners need not be part of it.", "data": [{"binder": "B1", "values": [{"measurement": "binding", "setting": "[1]", "value": "binds"}]}, {"binder": "B2", "values": [{"measurement": "binding", "setting": "PAD4-YFP (Arabidopsis)", "value": "binds"}]}]}
